This is an account of results in publication PMC5690286.

This experiment has as its target GST-fused C-terminus (residues 668-845) of Atg9 (Drosophila). In words: affinity purification with mass spectrometry; pull-down with GST-fused C-terminus (residues 668-845) of Atg9 as bait, LC-MS/MS of the bound proteins; source of the prey proteins not stated; only the target purified.

No constants are given. Whether binding was seen depends on the method and setting. In cells and extracts the contact can be indirect. Here binding means that the protein was enriched with, or labelled near, the bait; the list need not be complete. Tags and fused reporters may be left off the sequences shown.

B1: Pals1-associated tight junction protein (Patj), identified by LC-MS/MS in the GST-Atg9-C pull-down (protein, UniProt Q9NB04 1-871)
chain: MHLSADISSALQQIEAVKKGIDESDDPKLQMQTAESLSTILGILQDPVFRTIVHVQDSLSELNAQLAQHPSMLPNDFDIDVAGNLVLSLNGGEVMYDFDEQRSSSHSHSAPGSPDKSGGVGEEPRPQSQNSKGAGVADLYATDYAQIQAIELVNDGTGLGFGIIGARNSGVIVKTILPGGVADKDGRLRSGDHILQIGDVNLHEMVSEQVAAVLRQSGTHVRLVVARPVEQSVPTPQYALEPGTAVVPTRVLVDPAELERYLISTGYPEIFGESSTASTPQTTTEDDRFVYRGETSMLIDPNIDLEELLALPETEKLQVELKKDANGLGITIAGYVCEKEELSGIFVKSVSPGSAADLSGRIRVNDRIIEVDGQSLQGYSNHQAVELLKKSGQVVNLRLERYLRGPKFEQLQQAIAANDKLPSSAPGTPSRAPMPTPVATTSSATTTPSRSITRELEEEALPAPEAFMTTPPSVTTMTTTTLSSFGAGKQLVAVRDSLDGSTKIIPTEVVPLADKTEAKNSGVITRHKYYTDPELSDDAETEIIRKWQKIVGSDVEVIVAQIKKFAVGGLGISLEGTVDVEGGREVRPHHYIRSILPDGPVGVNGVLRSGDELLEVNGERLLGMNHLEVVAILKELPLDVRMVCGRNRNSSLLPFSDDTLKKLSNNFENLLPATDRLVKAKSDGSLATAGSVADGDSVAAAAASFSKLKSRSLEPLTGLAMWSSQPQIIELVKGDRGLGFSILDYQDPLDPNDTLIVIRSLVPGGVAQLDGRLIPGDRLLFVNSINLENASLDQAVQALKGASKGVVRIGVAKPLPMTDNSLKACSNASTTSEETLDAQPSPPALPTVAPPAMPPSASMGAEPDLIPDWRN
For B1, the binding result is on record as “binds”.
